The assay addresses MUC1 full length with HA tag at the C-terminal (UniProt P15941). The experiment in a line: co-IP; MUC1-HA-overexpressing HEK293T cells; NETN150 lysis buffer, antibody overnight at 4 °C, protein A/G plus agarose, western blot (Figure S3C).

Sequences of proteins named here, by UniProt entry; tags and fusion partners are left off. Residues count along the entry.
UniProt P15941, residues 24-1255: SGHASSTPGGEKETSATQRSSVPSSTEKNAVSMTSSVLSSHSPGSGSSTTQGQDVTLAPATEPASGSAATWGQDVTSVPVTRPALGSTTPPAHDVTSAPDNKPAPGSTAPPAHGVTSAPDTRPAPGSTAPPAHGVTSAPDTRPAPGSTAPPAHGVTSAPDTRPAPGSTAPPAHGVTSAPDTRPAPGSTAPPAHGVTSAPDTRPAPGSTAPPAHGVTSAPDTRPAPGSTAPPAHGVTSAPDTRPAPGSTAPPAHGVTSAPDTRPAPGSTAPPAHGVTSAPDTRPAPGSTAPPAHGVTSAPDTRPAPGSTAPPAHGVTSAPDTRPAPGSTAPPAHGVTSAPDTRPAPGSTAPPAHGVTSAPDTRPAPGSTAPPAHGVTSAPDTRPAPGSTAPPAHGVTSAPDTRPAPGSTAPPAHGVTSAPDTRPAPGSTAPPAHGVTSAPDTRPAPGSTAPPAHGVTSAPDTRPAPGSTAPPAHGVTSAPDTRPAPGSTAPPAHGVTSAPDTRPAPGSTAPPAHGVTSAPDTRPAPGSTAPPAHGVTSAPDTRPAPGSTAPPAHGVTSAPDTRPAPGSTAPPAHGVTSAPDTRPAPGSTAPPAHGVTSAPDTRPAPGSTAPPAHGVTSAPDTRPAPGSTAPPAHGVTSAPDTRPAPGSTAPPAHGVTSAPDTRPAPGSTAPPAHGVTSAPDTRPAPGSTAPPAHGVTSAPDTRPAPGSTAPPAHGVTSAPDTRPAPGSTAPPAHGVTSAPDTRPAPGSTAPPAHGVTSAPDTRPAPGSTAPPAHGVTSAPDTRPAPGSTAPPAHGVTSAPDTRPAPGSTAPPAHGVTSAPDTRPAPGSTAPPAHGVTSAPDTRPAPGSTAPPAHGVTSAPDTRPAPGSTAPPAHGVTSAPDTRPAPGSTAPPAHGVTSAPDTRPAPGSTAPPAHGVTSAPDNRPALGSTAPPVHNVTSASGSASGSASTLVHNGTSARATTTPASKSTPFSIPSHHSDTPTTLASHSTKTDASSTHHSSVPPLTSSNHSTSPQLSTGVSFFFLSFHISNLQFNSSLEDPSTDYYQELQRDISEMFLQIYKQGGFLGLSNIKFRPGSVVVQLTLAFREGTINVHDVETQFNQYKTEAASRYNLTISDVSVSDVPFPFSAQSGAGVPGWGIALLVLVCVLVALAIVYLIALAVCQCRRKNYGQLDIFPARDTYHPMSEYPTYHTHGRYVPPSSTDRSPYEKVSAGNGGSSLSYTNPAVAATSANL
UniProt Q15172: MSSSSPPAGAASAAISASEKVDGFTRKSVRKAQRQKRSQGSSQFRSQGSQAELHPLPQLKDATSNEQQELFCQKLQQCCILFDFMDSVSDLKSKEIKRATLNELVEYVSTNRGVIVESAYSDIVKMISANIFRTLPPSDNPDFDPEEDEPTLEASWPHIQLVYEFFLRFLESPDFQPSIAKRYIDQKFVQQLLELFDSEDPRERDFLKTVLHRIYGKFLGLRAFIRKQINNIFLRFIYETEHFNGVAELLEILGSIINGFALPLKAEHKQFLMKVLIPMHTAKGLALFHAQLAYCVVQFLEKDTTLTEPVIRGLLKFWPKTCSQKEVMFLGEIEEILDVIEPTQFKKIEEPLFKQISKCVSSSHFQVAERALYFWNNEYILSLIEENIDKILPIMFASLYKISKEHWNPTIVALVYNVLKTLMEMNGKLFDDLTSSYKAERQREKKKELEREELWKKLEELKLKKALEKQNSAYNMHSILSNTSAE
UniProt P30153: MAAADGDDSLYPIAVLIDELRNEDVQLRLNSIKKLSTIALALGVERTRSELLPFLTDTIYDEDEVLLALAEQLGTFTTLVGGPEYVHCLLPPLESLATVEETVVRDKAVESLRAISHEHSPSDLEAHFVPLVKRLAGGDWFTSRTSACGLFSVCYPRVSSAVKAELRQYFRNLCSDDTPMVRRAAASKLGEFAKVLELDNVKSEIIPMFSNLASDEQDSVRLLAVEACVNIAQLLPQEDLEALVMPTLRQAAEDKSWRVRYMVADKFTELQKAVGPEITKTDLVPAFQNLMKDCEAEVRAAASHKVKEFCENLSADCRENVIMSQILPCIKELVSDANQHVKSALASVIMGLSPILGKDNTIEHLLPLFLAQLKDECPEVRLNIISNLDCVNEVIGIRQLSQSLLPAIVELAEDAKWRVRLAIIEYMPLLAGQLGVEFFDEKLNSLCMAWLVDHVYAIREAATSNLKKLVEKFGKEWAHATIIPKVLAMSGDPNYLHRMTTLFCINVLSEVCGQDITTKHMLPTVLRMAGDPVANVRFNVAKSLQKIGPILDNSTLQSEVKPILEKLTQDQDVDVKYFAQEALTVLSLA

Results are given in words; binding and its absence hold for the method and conditions named. Binding seen in cells or lysates may run through a third protein. Some results given as binding are weak or reduced against the parent protein; the word gives no strength.

As for “PP2A B56α subunit (from UniProt Q15172 1-486)”, the binding entry was “binds”.
As to “PP2A Aα subunit (from UniProt P30153 1-589)”, the binding entry is recorded as “binds”.
